The text below walks through data of PMC7984809.

Protein sequences, listed by entry. Tags and fused reporters are not part of them.
UniProt Q13263: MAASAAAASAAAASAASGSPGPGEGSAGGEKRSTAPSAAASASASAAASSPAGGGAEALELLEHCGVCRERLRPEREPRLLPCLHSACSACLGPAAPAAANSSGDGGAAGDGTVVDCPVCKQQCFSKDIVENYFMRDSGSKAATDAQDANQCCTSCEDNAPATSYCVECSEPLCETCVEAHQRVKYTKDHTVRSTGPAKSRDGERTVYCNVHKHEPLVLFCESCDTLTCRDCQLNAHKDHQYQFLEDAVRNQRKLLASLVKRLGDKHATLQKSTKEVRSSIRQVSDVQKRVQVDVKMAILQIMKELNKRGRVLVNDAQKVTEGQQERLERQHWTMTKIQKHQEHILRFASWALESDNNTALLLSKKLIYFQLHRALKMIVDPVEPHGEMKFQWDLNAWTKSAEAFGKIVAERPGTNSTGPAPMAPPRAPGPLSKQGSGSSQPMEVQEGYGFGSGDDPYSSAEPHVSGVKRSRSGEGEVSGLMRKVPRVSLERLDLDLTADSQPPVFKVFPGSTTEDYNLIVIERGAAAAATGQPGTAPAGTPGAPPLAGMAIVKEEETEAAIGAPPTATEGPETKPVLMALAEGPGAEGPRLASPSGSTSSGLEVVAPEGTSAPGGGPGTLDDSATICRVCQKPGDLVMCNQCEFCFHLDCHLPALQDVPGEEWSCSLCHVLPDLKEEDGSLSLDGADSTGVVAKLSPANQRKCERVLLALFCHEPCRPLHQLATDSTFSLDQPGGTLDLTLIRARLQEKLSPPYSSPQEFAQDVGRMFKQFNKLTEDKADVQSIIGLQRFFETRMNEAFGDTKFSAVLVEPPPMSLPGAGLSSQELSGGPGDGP

The target of this assay is GFP-TRIM28 (UniProt Q13263). Briefly: co-IP; GFP-vector or GFP-TRIM28 transfected U2OS-TRE cells, with or without IR; pulled down by anti-GFP, immunoblotted with anti-TRDMT1. On the technique in general: Immunoblotting shows a protein as a band on a membrane.

Results are given in words; binding and its absence hold for the method and conditions named. Binding seen in cells or lysates may run through a third protein. Some entries that bind do so weakly or less than the wild type.

B1: TRDMT1 (protein, UniProt O14717 1-391)
chain: MEPLRVLELYSGVGGMHHALRESCIPAQVVAAIDVNTVANEVYKYNFPHTQLLAKTIEGITLEEFDRLSFDMILMSPPCQPFTRIGRQGDMTDSRTNSFLHILDILPRLQKLPKYILLENVKGFEVSSTRDLLIQTIENCGFQYQEFLLSPTSLGIPNSRLRYFLIAKLQSEPLPFQAPGQVLMEFPKIESVHPQKYAMDVENKIQEKNVEPNISFDGSIQCSGKDAILFKLETAEEIHRKNQQDSDLSVKMLKDFLEDDTDVNQYLLPPKSLLRYALLLDIVQPTCRRSVCFTKGYGSYIEGTGSVLQTAEDVQVENIYKSLTNLSQEEQITKLLILKLRYFTPKEIANLLGFPPEFGFPEKITVKQRYRLLGNSLNVHVVAKLIKILYE
Consider B1, for which the binding entry was “binds”.
